Reference: patent US8921515B2, “Methods and compositions of preparation for proteome analysis” (Case Western Reserve University, priority 2011, dated 2014)
Some entries share one result that the patent states for a list of compounds.

Test system: OS membrane protein pellet
Assay: Protein solubilization efficiencies of solubilizing agents (DC protein assay of supernatant)
Conditions: 1% PFOA, 1% SDS vs 100 mM ABC
Procedure: Bovine retinas obtained from WL Lawson Company (Omaha, Nebr.) were used to prepare the photoreceptor outer segment (OS) by sucrose density ultracentrifugation. All solvents used for bovine OS preparations contained protease inhibitors (1 mM EDTA, 0.2 mM PMSF, 0.7 μg/μL leupeptin, and 0.5 μg/μL pepstatin A) to inhibit protein degradation and 100 μM diethylenetriamine pentaacetic acid (DTPA) to inhibit oxidation.
The solubilized pellet solution was sonicated with a VirSonic 100 ultrasonic cell disrupter (SP Scientific, Gardiner, N.Y.) three times at 4.5 kHz of ultrasonic frequency for 9 seconds with 3-minute intervals between the sonications. The resulting protein extract was centrifuged at 15,000 g for 10 minutes, and the solubilized proteins in the supernatant were quantified using a DC protein assay kit (Bio-Rad, Hercules, Calif.).

O=C(O)C(F)(F)C(F)(F)C(F)(F)C(F)(F)C(F)(F)C(F)(F)C(F)(F)F [PFOA, perfluorooctanoic acid]
fold more protein solubilized than 100 mM ABC: over 5 fold
